In PubChem BioAssay AID493014 (National Center for Advancing Translational Sciences (NCATS), 2011) one finds AC50 data, which are given here for 41 compounds.

“And” between values parts separate entries of the source, which are not always exact repeats. Equal entries are not always repeated. This is one part of the list. Further columns of the screen follow, without active or inactive calls. The list favours compounds with an active or inconclusive main result. Potencies come from curve fits of mixed quality, noted in brackets.

This experiment in a line: qHTS Assay to Find Inhibitors of Chronic Active B-Cell Receptor Signaling. The note with it: ABC-DLBCL IkBa-CBG/CBR reporter, luminescence ratio (green luciferase fused to IkBa over red control in TMD8 lymphoma cells), 4 h. In outline: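 Cell line TMD8 (human ABC DLBCL), stably expressing tet-inducible CBG68-IkBa fusion and CBR; IMDM/0.5% FBS; cpd up to 46 uM; dox induction, 4 h, 37C/5% CO2; dual luminescence; green/red ratio; MG132 control.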

Setting [1] is: measured here: CBR red luminescence, cell number.

A word on the AC50: it is the midpoint of the concentration-response curve, whichever way the signal moves. On to `CC(C)(Oc1ccc(Cl)cc1)C(=O)Nc1ncccn1`, for which, under setting [1], the AC50 was 35.5 µM [falling, single point].
For the compound `Cc1ccc(-n2c(Cn3nc(C(F)F)cc3C(F)F)n[nH]c2=S)cc1`, the AC50 under setting [1] was 3.26 µM [rising, partial curve, poor fit].
Still for that read-out and setting: the same measure for `O=C(Nc1ccon1)c1csc2ccccc12`: 1.46 µM [falling, full curve, poor fit]; for `Cc1ccsc1C(=O)NNC(=S)NC1CCCCC1`: 10 µM [falling, partial curve]; for `COc1cccc(-c2nc(CS(=O)CC(=O)NCCCOC(C)C)c(C)o2)c1` (configuration not stated): 29.1 µM [rising, single point].
The same measure, in the same setting: as for `O=C(COC(=O)c1ccc(F)cc1)NCCCc1ccccc1`, the figure is 3.98 µM [falling, single point]; as for `c1ccc(OCCSc2nnnn2C2CCCCC2)cc1`, 2.24 µM [rising, full curve, poor fit]; as for `COc1cc(NC(=O)CCn2c(=S)oc3ccccc32)cc(OC)c1OC`, 1.58 µM [rising, partial curve, poor fit].
Consider `Cc1ccccc1Nc1nc(-c2sc(NC(=O)c3ccco3)nc2C)cs1`, for which, under setting [1], the AC50 is 18.4 µM [falling, partial curve, poor fit].
On the same count and under the same terms, the same measure for `CN(C(=S)Nc1ccc(F)cc1)C(c1ccccc1)c1ccccc1`: 35.5 µM [falling, single point]; for `O=C(COc1cccnc1[N+](=O)[O-])Nc1cccc(Br)c1`: 4.61 µM [rising, partial curve, poor fit]; for `COc1cc(OC)cc(C(=O)Nc2cccc(N3CCCC3)c2)c1`: 11.2 µM [falling, partial curve, poor fit].
Same read-out and setting: as for `O=C(CSc1nnc(-c2ccncc2)n1Cc1ccco1)Nc1nc(-c2ccccc2)cs1`, the figure is 0.82 µM [falling, full curve, poor fit]; as for `O=C1NNC(=O)C2C3C=CC(C4CC34)C12` (configuration not stated), 29.1 µM [rising, single point]; as for `CC(/C=N/NC(=O)c1cccnc1)=C\c1ccco1`, 3.66 µM [falling, partial curve, poor fit].
Still for that read-out and setting: as for `CCOC(=O)/C=C/C(=O)OCC(=O)NC(c1ccccc1)c1ccccc1`, the figure is 18.4 µM [falling, partial curve].
As to `C=CCN1C(=O)C(Cc2cccc(C)c2)SC1=Nc1ccc(C(=O)O)cc1` (configuration not stated), the AC50 by setting is: under setting [1], 29.1 µM [falling, single point]; (measured here: IkBa-CBG green luminescence) 20.6 µM [rising, partial curve, poor fit].
As for `CCC(C)(C)NC(=O)C(c1ccc(C)cc1)N(Cc1ccco1)C(=O)Cn1nnc2ccccc21` (configuration not stated), the half-maximal activity concentration (AC50) under setting [1] is 29.1 µM [rising, single point].
Take `NC(=O)c1ccccc1OCC(=O)NS(=O)(=O)c1ccc(Cl)cc1`: the AC50 under setting [1] was 32.6 µM [falling, single point].
With `O=C(Nc1cccc(-c2cccc(Cl)c2)c1)C1CCN(Cc2ccccn2)CC1`, the AC50 under setting [1] was 17.8 µM [falling, single point].
The same measure, in the same setting: as for `CCCCNC(=O)c1c[nH]c2ccc(S(=O)(=O)Nc3ccc(OCC)cc3)cc2c1=O`, the figure is 22.4 µM [rising, single point]; as for `Cc1cc(NC(=O)c2cccc(Oc3ccccc3)c2)n[nH]1`, 14.1 µM [falling, single point]; as for `Cc1cc(C(=O)N/N=C/c2cccc(OC(=O)c3ccco3)c2)n[nH]1`, 12.6 µM [falling, partial curve].
As to `C=C1C(C(=O)Nc2ccccc2)C1C(=O)Nc1ccccc1` (configuration not stated), the AC50 under setting [1] is 3.55 µM [rising, partial curve, poor fit].
As to `CN(Cc1ccco1)c1ncnc2ccc(-c3ccc4c(c3)OCO4)cc12`, the AC50 under setting [1] is 1.84 µM [falling, partial curve, poor fit] and 23.1 µM [falling, single point].
Still for that read-out and setting: the same measure for `CCSc1nnc(NC(=O)C(CC)(C(F)(F)F)C(F)(F)F)s1`: 18.4 µM [falling, single point].
Turning to `COc1ccc(CNc2ncnc3c2c(-c2ccccc2)cn3-c2ccccc2)cc1`, the AC50 under setting [1] was 3.98 µM [rising, full curve, poor fit].
The same measure, in the same setting: as for `Fc1cccc(Cl)c1Cn1nnc2c(-n3ccnc3)ncnc21`, the figure is 18.4 µM [falling, partial curve, poor fit]; as for `O=C(O)c1cccc([N+](=O)[O-])c1C(=O)Nc1nc2ccccc2s1`, 11.2 µM [falling, partial curve, poor fit]; as for `CC(=O)c1ccc(NC(=O)CNCc2cccs2)cc1`, 7.94 µM [rising, partial curve, poor fit].
The same measure, in the same setting: the same measure for `Cc1ccc(Nc2nc(N/N=C/c3c[nH]c4ccccc34)nc(N3CCOCC3)n2)cc1`: 6.51 µM [falling, full curve]; for `CCCc1cc(C(=O)NNC(=S)NC2CCCCC2)cs1`: 3.55 µM [falling, partial curve, poor fit].
On the same count and under the same terms, as for `COc1ccc(-c2nc(CSCC(=O)N3CCC(C(N)=O)CC3)c(C)o2)cc1OC`, the figure is 23.1 µM [rising, partial curve, poor fit].
Regarding `Cc1nnc(SCC(=O)NCc2ccccc2F)c2nn(-c3ccc(Cl)cc3)c(C)c12`, the AC50 under setting [1] was 6.31 µM [falling, single point].
Consider `Cc1cc(NC(=O)C2CCCCC2)n(-c2nc3ccccc3[nH]2)n1`, for which the AC50 under setting [1] is 0.146 µM [falling, full curve, poor fit].
Still for that read-out and setting: as for `CCNc1nc2ccccc2[nH]1`, the figure is 0.092 µM [falling, full curve, poor fit].
Same read-out and setting: the same measure for `O=c1c2cc(-c3ccccc3)sc2ncn1/N=C/c1ccco1`: 3.55 µM [rising, partial curve, poor fit].
The same measure, in the same setting: the same measure for `CCCNC(=O)c1cc(-c2ccc(OC)cc2)on1`: 23.1 µM [falling, partial curve, poor fit]; for `O=C1COc2ccc(C(=O)COC(=O)/C=C/c3cccc(F)c3)cc2N1`: 10 µM [rising, partial curve]; for `COc1ccc(C(=O)NNC(=S)NC(=O)c2ccco2)cc1`: 11.2 µM [falling, partial curve, poor fit].
`COc1ccc(CCC(=O)N2CCCc3ccccc32)cc1`: the AC50 under setting [1] was 1.58 µM [rising, full curve, poor fit].
